Experimental data: PubChem BioAssay AID652259 (Drosophila RNAi Screening Center, 2013)

Screen: 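Knock-downs that push a Wingless-driven reporter up or down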 (primary screen)
Cell system: Drosophila clone 8 imaginal disc epithelial cells
Reagents: long dsRNA against Drosophila genes
Conditions: pathway stimulated by co-transfected Wingless expression plasmid
Read-out: 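Firefly luciferase from a tcf-site Wingless reporter, measured alongside co-transfected Renilla luciferase that tracks transfection; pathway stimulated by a Wingless plasmid; the firefly-to-Renilla ratio is not deposited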
Scale: firefly reporter light: higher = more Wg reporter light, before normalisation; Renilla control light: higher = more transfected or surviving cells
Active means: 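Strong candidates differ from their plate mean by at least two out of four per-plate statistical tests; weak candidates meet just one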
Calls: active = candidate regulator (raises or lowers reporter); inactive = not a candidate
In all, the deposit lists about 22,000 reagents; below is an unselected part of those that have a named target and a result. Over the whole deposit, 233 (1.1%) were called active. 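Light values are raw, unnormalised plate reads; the ratio scores behind the reporter calls were not deposited.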 A number with no mark means an inactive call. Names joined by + are all predicted targets of the reagent. The record does not give: the amount of reagent, the time to read-out, the dose of the treatment.

reporter change call, replicate 1	firefly reporter light, replicate 1	firefly reporter light, replicate 2	Renilla control light, replicate 1	Renilla control light, replicate 2	target	DRSC id
	16866		12673		Parp1	DRSC07725
	4707		2563		Parp1	DRSC07778
	4795		2434		Parp1	DRSC07780
	17648		9933		Scamp	DRSC20286
Wg reporter activity raised (active)	16275		1622		Taf2	DRSC11298
	2663	6185	732	2230	CG8584	DRSC07217
	3488	9176	1415	2899	mRpS2	DRSC00550
	17181		3962		slim	DRSC06921
	7304		2151		Prtl99C	DRSC15049
	11496		5137		CG18266	DRSC02659
	5996		3548		Awh	DRSC08140
	2980	8487	1028	4049	CG30269	DRSC04158
	3741		1280		CG9801	DRSC16568
	3019	7185	993	2482	e(r)	DRSC18768
	5639		3050		PolD1	DRSC11138
	3404	5149	1885	1096	XNP	DRSC15594
	19586		14192		E(spl)m4-BFM	DRSC16992
	4501	7001	1128	3691	zip	DRSC04725
	5.42e5	4.41e5	1.47e5	1.04e5	zip	DRSC22489
	3592	5699	872	2205	CG13742 + CNT1	DRSC06413
	12036		2626		Dhc93AB	DRSC16644
	3910	5666	1609	3616	beat-IIIc	DRSC02438
	2581	6829	1584	3829	beat-IIIc	DRSC02949
	2220	5449	653	2141	Gr28a	DRSC02290
	21898		11840		CG13358	DRSC18534
	9538		4535		CG15528	DRSC15065
	2740	8762	791	2609	CG9890	DRSC04590
	18373		8455		CG2209	DRSC19843
	8244		637		Xrp1	DRSC15282
	12544		2569		Xrp1	DRSC15283
	11729	7.73e5	3019	4.08e5	CG15597	DRSC12283
	1824	4547	896	1900	5-HT7	DRSC12635
	4365	7433	785	3413	spag4	DRSC02973
	3152		851		dikar	DRSC09699
	7.48e5	7.96e5	1.94e5	2.16e5	dikar	DRSC22261
	5428	8.05e5	832	3.53e5	CG34242	DRSC09185
	13401		6384		CG31601	DRSC03678
	15625		7136		CG33757	DRSC05159
	4704		1637		CG5989	DRSC10565
	9188		3405		cN-IIIB	DRSC04359
	16296		8394		CG1722	DRSC20547
	15904		9401		kl-3 (retired record)	DRSC20891
	13265		4096		CG11741	DRSC14367
	7057		2257		Miox	DRSC10747
	15840		4857		CG9372	DRSC11068
	7963		2592		CG13978	DRSC14720
	6957		1685		esc	DRSC03529
	15835		10029		jb	DRSC20531
	2704		1467		CG12605	DRSC08286
	9493		3748		PXo	DRSC09734
	5222		2637		Tcs3	DRSC10461
	12964		4342		JhI-21	DRSC02161
	7892		3610		lambdaTry	DRSC06137
	3223	5713	982	2757	CG13560	DRSC04198
	5010		2285		CG11262	DRSC09831
	14053		7699		CG33125	DRSC00145
	12202		2977		mRpL9	DRSC15678
	1664	4100	723	1536	mEFG1	DRSC02758
	4262		2284		CG10081	DRSC05962
	10956	6.87e5	4544	3.25e5	CG1074	DRSC12143
	5746		1913		Art1	DRSC16063
	3804	10292	697	4976	CG3649	DRSC04400
	2786	10727	1434	2403	RFeSP	DRSC00702
	1665	5190	763	2217	TTLL3B	DRSC02133
	11577		2720		CG9452	DRSC11075
	17958		2321		Not3	DRSC04908
	24244	7.91e5	10984	3.10e5	CG43349	DRSC00039
	2821	8169	742	3223	brp	DRSC06245
	2667	6509	506	2497	brp	DRSC06246
	3241	8961	617	3081	brp	DRSC06801
	5.27e5	5.37e5	1.43e5	1.44e5	brp	DRSC21893
	2099	5196	656	2171	Jon44E	DRSC07216
	18354		10137		CG12061	DRSC20715

Entries above whose gene name begins with E or e:
reporter change call, replicate 1	firefly reporter light, replicate 1	firefly reporter light, replicate 2	Renilla control light, replicate 1	Renilla control light, replicate 2	target	DRSC id
	3019	7185	993	2482	e(r)	DRSC18768
	19586		14192		E(spl)m4-BFM	DRSC16992
	6957		1685		esc	DRSC03529
